According to publication PMC9390996:
No constants are given. Whether binding was seen depends on the method and setting. In cells and extracts the contact can be indirect. Some entries that bind do so weakly or less than the wild type. For part of these data: Where a sequence is shown, tags or fusion partners need not be part of it. Each block holds one binder with its values, some of them ahead of it.

How the values were obtained:
[1] = biological target: T1, RB1 (endogenous, SH-SY5Y neuroblastoma cells) (human (endogenous in SH-SY5Y)) (UniProt P06400); assay: co-IP; endogenous proteins in RB1-WT SH-SY5Y cells; cells treated with dithiobis succinimidyl propionate, lysed in NP-40 buffer; immunoprecipitation for RB1, ESRRG or IgG control overnight at 4°C, protein G Dynabeads, Western blot
T1 sequence: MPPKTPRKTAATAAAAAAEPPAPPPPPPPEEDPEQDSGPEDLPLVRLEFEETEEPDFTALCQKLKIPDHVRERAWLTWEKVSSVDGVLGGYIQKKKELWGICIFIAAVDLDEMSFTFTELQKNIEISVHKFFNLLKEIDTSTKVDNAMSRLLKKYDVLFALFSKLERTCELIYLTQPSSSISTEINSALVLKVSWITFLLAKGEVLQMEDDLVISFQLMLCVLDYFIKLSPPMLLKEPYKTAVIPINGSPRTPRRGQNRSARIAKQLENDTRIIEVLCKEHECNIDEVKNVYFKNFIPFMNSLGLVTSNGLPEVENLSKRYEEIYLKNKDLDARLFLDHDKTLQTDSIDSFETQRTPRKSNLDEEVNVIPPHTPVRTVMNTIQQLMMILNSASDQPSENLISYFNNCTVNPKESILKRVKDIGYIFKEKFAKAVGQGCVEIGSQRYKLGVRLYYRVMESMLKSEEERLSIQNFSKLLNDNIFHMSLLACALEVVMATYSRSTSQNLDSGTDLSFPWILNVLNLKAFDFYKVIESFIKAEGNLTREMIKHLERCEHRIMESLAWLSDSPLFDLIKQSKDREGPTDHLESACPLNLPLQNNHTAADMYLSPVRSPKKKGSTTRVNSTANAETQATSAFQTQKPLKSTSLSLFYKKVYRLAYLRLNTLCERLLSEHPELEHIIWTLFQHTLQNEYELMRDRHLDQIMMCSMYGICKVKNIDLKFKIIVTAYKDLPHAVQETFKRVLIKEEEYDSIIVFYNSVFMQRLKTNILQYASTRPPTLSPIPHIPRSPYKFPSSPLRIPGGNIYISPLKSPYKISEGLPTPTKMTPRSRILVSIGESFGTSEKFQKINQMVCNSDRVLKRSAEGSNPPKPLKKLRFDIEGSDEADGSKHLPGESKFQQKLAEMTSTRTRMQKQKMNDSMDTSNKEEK

[2] = biological target: T2, hemagglutinin (HA)-tagged RB1 (human) (UniProt P06400); assay: co-IP; ectopically expressed HA-RB1 and V5-ESRRG (WT or MUT) in RB1-null C33A cells; cells treated with dithiobis succinimidyl propionate, lysed in NP-40 buffer; immunoprecipitation for HA or for V5, protein G Dynabeads, Western blot
T2 sequence: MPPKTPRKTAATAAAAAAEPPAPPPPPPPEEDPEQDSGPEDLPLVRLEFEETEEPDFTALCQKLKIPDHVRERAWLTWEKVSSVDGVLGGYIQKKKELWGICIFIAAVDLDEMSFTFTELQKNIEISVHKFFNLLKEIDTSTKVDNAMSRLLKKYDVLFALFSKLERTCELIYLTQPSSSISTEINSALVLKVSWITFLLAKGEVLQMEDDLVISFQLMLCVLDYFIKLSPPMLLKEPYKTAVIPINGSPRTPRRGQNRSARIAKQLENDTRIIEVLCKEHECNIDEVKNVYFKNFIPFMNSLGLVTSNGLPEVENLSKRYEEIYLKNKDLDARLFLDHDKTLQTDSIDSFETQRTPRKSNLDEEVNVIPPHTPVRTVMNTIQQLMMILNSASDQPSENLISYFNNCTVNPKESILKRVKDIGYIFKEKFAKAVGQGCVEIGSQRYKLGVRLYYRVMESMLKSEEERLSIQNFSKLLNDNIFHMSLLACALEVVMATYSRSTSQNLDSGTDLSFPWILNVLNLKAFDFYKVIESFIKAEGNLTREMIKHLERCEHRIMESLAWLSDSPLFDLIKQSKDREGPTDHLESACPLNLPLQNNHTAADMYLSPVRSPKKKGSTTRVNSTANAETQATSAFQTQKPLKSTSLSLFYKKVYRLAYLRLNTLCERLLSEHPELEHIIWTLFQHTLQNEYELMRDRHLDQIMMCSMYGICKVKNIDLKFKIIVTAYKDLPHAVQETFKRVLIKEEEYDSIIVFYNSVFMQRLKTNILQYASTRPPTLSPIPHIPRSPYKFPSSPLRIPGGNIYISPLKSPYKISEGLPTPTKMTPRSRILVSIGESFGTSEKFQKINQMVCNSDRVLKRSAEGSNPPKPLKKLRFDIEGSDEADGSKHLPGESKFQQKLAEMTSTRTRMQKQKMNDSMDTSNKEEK

[3] = biological target: T3, RB1 in RB1-WT HEK293 cells (human) (UniProt P06400); assay: co-IP; RB1-WT HEK293 cells (express adenoviral E1A); fig. S10; cells treated with dithiobis succinimidyl propionate, lysed in NP-40 buffer
T3 sequence: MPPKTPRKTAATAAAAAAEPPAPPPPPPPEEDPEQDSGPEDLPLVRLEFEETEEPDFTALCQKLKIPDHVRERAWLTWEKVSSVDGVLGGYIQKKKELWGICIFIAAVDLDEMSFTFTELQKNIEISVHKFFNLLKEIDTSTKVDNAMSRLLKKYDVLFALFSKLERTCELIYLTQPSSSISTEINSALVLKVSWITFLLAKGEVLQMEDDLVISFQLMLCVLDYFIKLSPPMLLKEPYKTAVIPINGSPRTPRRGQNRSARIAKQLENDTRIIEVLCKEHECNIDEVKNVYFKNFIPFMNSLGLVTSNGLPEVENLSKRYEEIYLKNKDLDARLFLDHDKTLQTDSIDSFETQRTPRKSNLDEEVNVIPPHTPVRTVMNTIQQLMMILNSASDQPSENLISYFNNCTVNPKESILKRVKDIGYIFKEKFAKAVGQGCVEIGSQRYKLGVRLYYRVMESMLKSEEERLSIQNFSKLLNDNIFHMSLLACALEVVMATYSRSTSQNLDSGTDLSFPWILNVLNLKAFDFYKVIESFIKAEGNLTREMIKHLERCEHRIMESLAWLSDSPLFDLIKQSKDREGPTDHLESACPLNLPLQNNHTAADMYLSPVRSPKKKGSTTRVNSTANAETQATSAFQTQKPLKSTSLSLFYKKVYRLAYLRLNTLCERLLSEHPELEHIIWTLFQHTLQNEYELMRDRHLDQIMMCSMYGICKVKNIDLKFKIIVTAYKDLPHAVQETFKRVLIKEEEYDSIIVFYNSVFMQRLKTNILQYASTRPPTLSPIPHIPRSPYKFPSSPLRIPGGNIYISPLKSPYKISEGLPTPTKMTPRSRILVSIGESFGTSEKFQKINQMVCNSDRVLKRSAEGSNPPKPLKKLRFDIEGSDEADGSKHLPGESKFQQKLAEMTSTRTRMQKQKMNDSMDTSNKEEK

binding [1]: binds
B1: estrogen-related receptor gamma (ESRRG) (endogenous, SH-SY5Y neuroblastoma cells) (protein, UniProt P62508 1-458)
chain: MDSVELCLPESFSLHYEEELLCRMSNKDRHIDSSCSSFIKTEPSSPASLTDSVNHHSPGGSSDASGSYSSTMNGHQNGLDSPPLYPSAPILGGSGPVRKLYDDCSSTIVEDPQTKCEYMLNSMPKRLCLVCGDIASGYHYGVASCEACKAFFKRTIQGNIEYSCPATNECEITKRRRKSCQACRFMKCLKVGMLKEGVRLDRVRGGRQKYKRRIDAENSPYLNPQLVQPAKKPYNKIVSHLLVAEPEKIYAMPDPTVPDSDIKALTTLCDLADRELVVIIGWAKHIPGFSTLSLADQMSLLQSAWMEILILGVVYRSLSFEDELVYADDYIMDEDQSKLAGLLDLNNAILQLVKKYKSMKLEKEEFVTLKAIALANSDSMHIEDVEAVQKLQDVLHEALQDYEAGQHMEDPRRAGKMLMTLPLLRQTSTKAVQHFYNIKLEGKVPMHKLFLEMLEAKV

B2: V5-tagged WT ESRRG (protein, UniProt P62508 1-458)
chain: MDSVELCLPESFSLHYEEELLCRMSNKDRHIDSSCSSFIKTEPSSPASLTDSVNHHSPGGSSDASGSYSSTMNGHQNGLDSPPLYPSAPILGGSGPVRKLYDDCSSTIVEDPQTKCEYMLNSMPKRLCLVCGDIASGYHYGVASCEACKAFFKRTIQGNIEYSCPATNECEITKRRRKSCQACRFMKCLKVGMLKEGVRLDRVRGGRQKYKRRIDAENSPYLNPQLVQPAKKPYNKIVSHLLVAEPEKIYAMPDPTVPDSDIKALTTLCDLADRELVVIIGWAKHIPGFSTLSLADQMSLLQSAWMEILILGVVYRSLSFEDELVYADDYIMDEDQSKLAGLLDLNNAILQLVKKYKSMKLEKEEFVTLKAIALANSDSMHIEDVEAVQKLQDVLHEALQDYEAGQHMEDPRRAGKMLMTLPLLRQTSTKAVQHFYNIKLEGKVPMHKLFLEMLEAKV
binding [2]: binds

binding [3]: binds
B3: ESRRG in HEK293 cells (protein, UniProt P62508 1-458)
chain: MDSVELCLPESFSLHYEEELLCRMSNKDRHIDSSCSSFIKTEPSSPASLTDSVNHHSPGGSSDASGSYSSTMNGHQNGLDSPPLYPSAPILGGSGPVRKLYDDCSSTIVEDPQTKCEYMLNSMPKRLCLVCGDIASGYHYGVASCEACKAFFKRTIQGNIEYSCPATNECEITKRRRKSCQACRFMKCLKVGMLKEGVRLDRVRGGRQKYKRRIDAENSPYLNPQLVQPAKKPYNKIVSHLLVAEPEKIYAMPDPTVPDSDIKALTTLCDLADRELVVIIGWAKHIPGFSTLSLADQMSLLQSAWMEILILGVVYRSLSFEDELVYADDYIMDEDQSKLAGLLDLNNAILQLVKKYKSMKLEKEEFVTLKAIALANSDSMHIEDVEAVQKLQDVLHEALQDYEAGQHMEDPRRAGKMLMTLPLLRQTSTKAVQHFYNIKLEGKVPMHKLFLEMLEAKV
